From patent publication US20250277039A1 (PURDUE RESEARCH FOUNDATION, published 2025)
No constants are given. Whether binding was seen depends on the method and setting.

Biological target: cPD-L2 protein (canine)
Test: ELISA-based plate assay, bound antibody as OD450

binding: no binding
B1: cPD-L1 12C10E4 chimeric antibody (mouse variable domains, canine IgG2 / canine kappa constant domains) (antibody)
heavy: QVQLKQSGPGLVQPSQSLSITCTISGFSLTSFGVHWVRQSPGKGLEWLGVIWSGGSTDYNAAFTSRLSINKDNSKSQVFFKMNSLQADDTAIYYCARGGGPDWYFDVWGTGTTVTVSSASTTAPSVFPLAPSCGSTSGSTVALACLVSGYFPEPVTVSWNSGSLTSGVHTFPSVLQSSGLYSLSSMVTVPSSRWPSETFTCNVAHPASKTKVDKPVPKRENGRVPRPPDCPKCPAPEMLGGPSVFIFPPKPKDTLLIARTPEVTCVVVDLDPEDPEVQISWFVDGKQMQTAKTQPREEQFNGTYRVVSVLPIGHQDWLKGKQFTCKVNNKALPSPIERTISKARGQAHQPSVYVLPPSREELSKNTVSLTCLIKDFFPPDIDVEWQSNGQQEPESKYRTTPPQLDEDGSYFLYSKLSVDKSRWQRGDTFICAVMHEALHNHYTQKSLSHSPGK
light: DIVLTQSPASLAVSLGQRATISCRASESVEYYGTSLMQWYQQKPGQPPKLLIFAASNVKSGVPARFSGSGSGTDFSLNIHPVEEDDIAMYFCQQSGKVPHTFGGGTKLEIKRSMEIKRTDAQPAVYLFQPSPDQLHTGSASVVCLLNSFYPKDINVKWKVDGVIQDTGIQESVTEQDKDSTYSLSSTLTMSSTEYLSHELYSCEITHKSLPSTLIKSFQRSECQRVD
notes: Expressed in ExpiCHO-S cells from pTRIOZ-cIgG2-12C10E4; also called 12C chimeric antibody; mAb 12C
